Test results as given in patent US9877978B2, “Compositions comprising NDGA derivatives and sorafenib and their use in treatment of cancer” (THE JOHNS HOPKINS UNIVERSITY, priority 2012, dated 2018).

System: HepG2 human HCC cells
Experiment: MTT cytotoxicity assay with median-effect / combination index analysis
Assay type: cell-based
Conditions: HepG2, 24-Hour Treatment
Procedure: Cytotoxicity assay. […] M4N was used at concentrations between 0 and 80 μM. For the combination of M4N and sorafenib a constant molar ratio of 2:1 (M4N:sorafenib) was used. Twenty four hours after drug addition, cytotoxicity was assessed with the MTT assay with […] measured with a Power Wave 200 microplate reader.
Evaluation of drug interactions. The combination index (CI) isobologram method of Chou and Talalay, which is based on the median-effect principle, was used to calculate synergism or antagonism for the combined drug effects. Dose-effect curves for the two drugs, singly and in combination, in serially diluted concentrations were plotted using the median-effect equation and plot and the CI equation and plot. CI values at different effect and dose levels and isobolograms were generated automatically using the computer software CompuSyn. With this method, additive, synergistic, or antagonistic effects are indicated by CI values of 1, <1, and >1, respectively. Comparison of the ratio of doses required to reach a given effect level for each single drug and the drugs in combination was used to determine the dose-reduction.

With `COc1ccc(C[C@@H](C)[C@@H](C)Cc2ccc(OC)c(OC)c2)cc1OC` [M4N, tetra-O-methyl nordihydroguaiaretic acid] the “m, shape of the dose-effect curve” value was 2.76.
With `CNC(=O)c1cc(Oc2ccc(NC(=O)Nc3ccc(Cl)c(C(F)(F)F)c3)cc2)ccn1` [sorafenib] the “m, shape of the dose-effect curve” value was 0.41.
